Bridge positions count the residues as written; N and C are the ends. Square brackets hold non-standard residues; d marks the D form. S5 = C=CCCC[C@](C)(N)C(=O)O; Nle = CCCC[C@H](N)C(=O)O
Assay: general procedure: Fmoc solid-phase peptide synthesis; Rink amide resin, 0.37 mmol/g; HCTU/DIPEA
Details: whole synthesis, LC-MS characterisation

## H-E[S5]LKK[S5]K[Nle]KLGTA-NH2 (staple 2-6; N-terminus assumed; SMILES CCCC[C@H](NC(=O)[C@H](CCCCN)NC(=O)[C@]1(C)CCCC=CCCC[C@](C)(NC(=O)[C@@H](N)CCC(=O)O)C(=O)N[C@@H](CC(C)C)C(=O)N[C@@H](CCCCN)C(=O)N[C@@H](CCCCN)C(=O)N1)C(=O)N[C@@H](CCCCN)C(=O)N[C@@H](CC(C)C)C(=O)NCC(=O)N[C@H](C(=O)N[C@@H](C)C(N)=O)[C@@H](C)O)
  final HPLC purity: 98.4%

— patent publication US12077608B2 (H. LEE MOFFITT CANCER CENTER AND RESEARCH INSTITUTE, INC., priority 2018, dated 2024)
